{
  "source": "the supplement of paper PMC6289059",
  "note": "This is one part of the list. Single values are uncertain, as repeats are few or missing.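 The cells are hepatocyte-like cells grown from human stem cells in which the DGUOK gene was disrupted by CRISPR, a model of liver mtDNA depletion syndrome. Each well's ATP signal was scored against the other wells on its plate, and a drug counted as a primary hit when its score was 3 or higher.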",
  "data": [
    {"system": "DGUOK Δ14/Δ5 iPSC-derived hepatocyte-like cells (SV20)", "test": "ATP level (CellTiter-Glo luminescence) Z score relative to plate distribution, under 2-DG glycolysis block; higher = more cellular ATP (rescue of mitochondrial ATP production)", "details": "5 µM; treatment time: day 15 to day 20 of differentiation (5 days); 2-deoxy-D-glucose: 20 mM for 24 h before assay", "values": [
      {"smiles": "CC1CCc2cc(F)cc3c(=O)c(C(=O)O)cn1c23", "note": "(centres undefined)", "ATP level": "inactive: -5.18"},
      {"smiles": "CCCCOc1ccc(OCCCN2CCOCC2)cc1", "ATP level": "inactive: -0.913"},
      {"smiles": "CCCCCCCCCCCCCCCCC(C(=O)O)C(O)(CC(=O)O)C(=O)O", "note": "(centres undefined)", "ATP level": "inactive: -0.0409"},
      {"smiles": "CC(=O)O[C@H]1C[C@@H](OC(C)=O)C(C)(C)C2CC(=O)[C@]3(C)C(CC[C@@]4(C)[C@H](C(=O)O)OC(=O)C5OC543)[C@]21C", "note": "(some centres undefined)", "ATP level": "inactive: -0.785"},
      {"smiles": "CC1(C)S[C@@H]2[C@H](N3C(=O)[C@@H](c4ccccc4)NC3(C)C)C(=O)N2[C@H]1C(=O)O", "ATP level": "inactive: 2.18"},
      {"smiles": "CCn1cc(C(=O)O)c(=O)c2cc(F)c(N3CCNCC3)cc21", "ATP level": "inactive: -3.82"},
      {"smiles": "COC(=O)c1c(C)cc(OC(=O)c2c(C)cc(O)c(CO)c2O)c(C)c1O", "ATP level": "inactive: 0.143"},
      {"smiles": "O=c1c(O)c(-c2ccc(O)c(O)c2)oc2c(O[C@@H]3O[C@H](CO)[C@@H](O)[C@H](O)[C@H]3O)c(O)cc(O)c12", "ATP level": "inactive: -1.02"},
      {"smiles": "O=C(c1ccc(OCCN2CCCCC2)cc1)c1c(-c2ccc(O)cc2)sc2cc(O)ccc12", "ATP level": "inactive: -3.98"},
      {"smiles": "CC(CN1c2ccccc2Sc2ccccc21)N(C)C", "note": "(centres undefined)", "ATP level": "inactive: -1.02"},
      {"smiles": "C=C1[C@H]2CC[C@@]3(C)[C@H](c4ccoc4)OC(=O)C[C@]13O[C@H]1C[C@H](O)C(C)(C)[C@H](CC(=O)OC)[C@]12C", "note": "[3-DEOXY-3beta-HYDROXYANGOLENSIC ACID METHYL ESTER]", "ATP level": "inactive: -4.45"},
      {"smiles": "NS(=O)(=O)c1cc2c(cc1C(F)(F)F)NC(Cc1ccccc1)NS2(=O)=O", "note": "(centres undefined)", "ATP level": "active: 4.31"},
      {"smiles": "CNC1(C)C2CCC(C2)C1(C)C", "note": "(centres undefined)", "ATP level": "inactive: 1.85"},
      {"smiles": "NC(=O)C1(N2CCCCC2)CCN(CCCC(=O)c2ccc(F)cc2)CC1", "ATP level": "inactive: 0"},
      {"smiles": "CCCCCCCCCCCCCCCC[N+](C)(C)C", "ATP level": "inactive: -13.3"},
      {"smiles": "O=C(O)CCc1nc2ccccc2[nH]1", "ATP level": "inactive: -0.152"},
      {"smiles": "C=C(NC(=O)C(=C)NC(=O)c1csc(C2=N[C@@H]3c4csc(n4)[C@H]4NC(=O)c5csc(n5)[C@H]([C@](C)(O)[C@@H](C)O)NC(=O)[C@H]5CSC(=N5)/C(=C/C)NC(=O)[C@H]([C@@H](C)O)NC(=O)c5csc(n5)[C@]3(CC2)NC(=O)[C@H](C)NC(=O)C(=C)NC(=O)[C@H](C)NC(=O)[C@H]([C@@H](C)CC)N[C@@H]2C=Cc3c([C@H](C)O)cc(nc3[C@H]2O)C(=O)O[C@@H]4C)n1)C(N)=O", "ATP level": "inactive: -12.3"},
      {"smiles": "Cn1c(=O)c2c(ncn2CC(O)CO)n(C)c1=O", "note": "(centres undefined)", "ATP level": "inactive: -0.646"},
      {"smiles": "CCCc1nc(C(C)(C)O)c(C(=O)OCc2oc(=O)oc2C)n1Cc1ccc(-c2ccccc2-c2nnn[nH]2)cc1", "ATP level": "inactive: -0.231"}
    ]}
  ]
}
